PMC3770081
These are yes or no findings as the source states them, for the method shown. In cells and extracts the contact can be indirect. Some entries that bind do so weakly or less than the wild type.

Chains of the proteins cited; added tags and fusions are not shown.
UniProt P46002: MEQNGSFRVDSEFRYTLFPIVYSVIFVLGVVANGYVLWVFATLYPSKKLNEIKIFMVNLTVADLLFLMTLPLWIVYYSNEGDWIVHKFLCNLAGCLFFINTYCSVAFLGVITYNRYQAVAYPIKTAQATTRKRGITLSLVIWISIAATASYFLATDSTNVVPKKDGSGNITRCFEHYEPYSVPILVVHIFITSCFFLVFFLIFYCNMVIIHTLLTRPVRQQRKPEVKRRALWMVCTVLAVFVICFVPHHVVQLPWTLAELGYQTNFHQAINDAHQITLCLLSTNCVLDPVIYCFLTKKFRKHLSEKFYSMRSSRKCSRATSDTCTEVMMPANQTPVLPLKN
UniProt P29067: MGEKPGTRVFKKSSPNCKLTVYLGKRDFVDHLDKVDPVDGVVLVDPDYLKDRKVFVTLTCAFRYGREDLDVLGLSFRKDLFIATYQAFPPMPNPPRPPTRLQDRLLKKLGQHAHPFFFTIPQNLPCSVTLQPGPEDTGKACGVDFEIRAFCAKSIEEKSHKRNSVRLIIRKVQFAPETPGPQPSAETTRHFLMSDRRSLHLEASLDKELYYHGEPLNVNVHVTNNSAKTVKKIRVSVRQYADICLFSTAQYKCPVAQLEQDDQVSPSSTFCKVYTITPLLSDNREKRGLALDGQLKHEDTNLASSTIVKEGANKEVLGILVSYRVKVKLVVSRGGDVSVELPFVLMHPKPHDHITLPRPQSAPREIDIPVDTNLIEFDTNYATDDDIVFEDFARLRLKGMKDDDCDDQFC

Target: platelet-activating factor receptor (rat (endogenous in rat aortic VSMCs)) (UniProt P46002)
Assay: co-IP; cleared lysates of rat aortic VSMCs, untreated or treated with 1 nmol/l PAF for 10 min, mixed with 2 μg of PAFR-agarose (anti-PAFR antibody) for 2 h; washed three times with lysis buffer; pellets blotted with anti-ERK, anti-P-ERK, anti-β-arrestin2 or anti-PAFR

binding: binds
Substance: β-arrestin2 (from UniProt P29067 1-410)
